The campaign covered roughly 390,000 compounds. About 610 (0.16%) were called active. Inconclusive means that the source gave no clear call. Such entries were picked first, then a sample of the others. The call rests on the fitted dose curve; in most records, active means well fitted inhibition curve with a large enough effect; inconclusive means small, poorly fitted or top-dose-only effect, or effect the other way, or another doubt; inactive means no such curve, though single readings can be large or run the other way. A potency beside an inconclusive call is a rough fit, not a confirmed value.
Assay: Nrf2 qHTS screen for inhibitors: counterscreen for cytotoxicity
Conditions: A549 ARE-Fluc cells, CellTiter-Fluor viability, 18-24 h; activity change, negative = cytotoxicity: at 46 µM (top of the series)
Method in brief: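 A549 ARE_Fluc cells in 5% FBS OPTI-MEM were exposed to compounds in concentration-response for 18-24 h at 37 deg C. Viability was read by CellTiter-Fluor fluorescence (Ex 405/Em 525) after 30 min, before the luciferase read.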
On the % scale 0 is the no-effect control and ±100 the full control effect; potency means the concentration at half of the fitted maximal effect.

Row | SMILES | Potency | activity change, negative = cytotoxicity
1 | CC(=O)N1CCN(c2cc(N3CCCC3)c(F)cc2[N+](=O)[O-])CC1 | inconclusive: 20.6 µM [falling, single point] | 
2 | O=S(=O)(NCc1ccccc1)c1ccc(Cl)cc1 |  | inactive: 2.61%
3 | CCCn1cc(CN2CCC(N3CCC(C(=O)N4CCOCC4)CC3)CC2)c(C)n1 | inconclusive: 11.6 µM [falling, partial curve, poor fit] | 
4 | O=C(Nc1cccnc1)c1ccc(COc2cc(Cl)ccc2Cl)o1 | inconclusive: 18.4 µM [falling, partial curve, poor fit] | 
5 | COc1cc(OC)nc(-n2ncc(Br)c(Br)c2=O)n1 | inconclusive: 25.9 µM [falling, single point] | 
6 | Clc1ccc2c(c1)c1cc(Cl)ccc1n2CN1CCOCC1 | inconclusive: 23.1 µM [falling, partial curve, poor fit] | 
7 | CSCC[C@H](NC(=O)N1CCn2c1nc1ccccc12)C(=O)NCc1ccccc1 |  | inactive: -7.01%
8 | COc1ccc(Br)cc1/C=C/C(=O)Nc1ccc(C)cc1 | inconclusive: 29.1 µM [falling, partial curve, poor fit] | 
9 | CCc1ccccc1N(C)C(=O)CCc1nc(-c2ccc(C)cc2)no1 |  | inactive: 10.5%
10 | Cc1c(Br)c([N+](=O)[O-])nn1CC(=O)Nc1ccc(Cc2ccncc2)cc1 | inconclusive: 32.6 µM [falling, partial curve, poor fit] | 
11 | CCc1ccc(NC(=O)c2ccc(F)c(S(=O)(=O)NC3CCCCCC3)c2)cc1 | inconclusive: 29.1 µM [falling, single point] | 
12 | Fc1ccc(-[n+]2nc(Nc3ccccc3)sc2-c2c(Cl)cccc2Cl)cc1 | inconclusive: 29.1 µM [falling, single point] | 
13 | CC(C)(C)C(=O)NC(=S)NNC(=O)c1sc2ccccc2c1Cl | inconclusive: 29.1 µM [falling, single point] | 
14 | COc1ccc(C(=O)C[n+]2ccc3c(c2)nc(-c2ccccc2)n3C)cc1 |  | inactive: -1.85%
15 | Cc1ccc(C)c(N2CCN(C(=O)Nc3cn(CC(C)C)c(=O)c4ccccc34)CC2)c1 | inconclusive: 32.6 µM [falling, partial curve, poor fit] | 
16 | COc1ccc(Cn2c(C(=O)O)c(CNCC(C)c3ccccc3)c3ccc(OC)cc32)cc1 (stereo unspecified) | inconclusive: 14.6 µM [falling, partial curve] | 
17 | COc1ccc(NC(=O)c2ccc(F)cc2)cc1S(=O)(=O)Nc1cc(C)ccc1Br | inconclusive: 29.1 µM [falling, single point] | 
18 | Nc1nnnn1/N=C/c1cc(Cl)cc(Cl)c1O | inconclusive: 20.6 µM [activator, partial curve] | 
19 | Cc1cc(-n2c(SCC(=O)NCc3ccccc3)nc3ccsc3c2=O)ccc1Cl |  | inactive: -11.6%
20 | Cc1ccc2c(c1)c(=O)c1ccccc1n2CCCC(=O)Nc1ccc(C)c(F)c1 |  | inactive: -18.7%
21 | Cc1ccc(/C=N/NC(=O)Cn2cnc3ccccc32)o1 | inconclusive: 9.2 µM [falling, partial curve, poor fit] | 
22 | COc1cc(N(C(=O)Cc2cccs2)C(C(=O)NC2CCCCC2)c2ccc(C)cc2)ccc1-n1cnnn1 (stereo unspecified) |  | inactive: -5.69%

Molecules shown so far with bromine (four):
Row | SMILES | Potency | activity change, negative = cytotoxicity
5 | COc1cc(OC)nc(-n2ncc(Br)c(Br)c2=O)n1 | inconclusive: 25.9 µM [falling, single point] | 
8 | COc1ccc(Br)cc1/C=C/C(=O)Nc1ccc(C)cc1 | inconclusive: 29.1 µM [falling, partial curve, poor fit] | 
10 | Cc1c(Br)c([N+](=O)[O-])nn1CC(=O)Nc1ccc(Cc2ccncc2)cc1 | inconclusive: 32.6 µM [falling, partial curve, poor fit] | 
17 | COc1ccc(NC(=O)c2ccc(F)cc2)cc1S(=O)(=O)Nc1cc(C)ccc1Br | inconclusive: 29.1 µM [falling, single point] | 

(further entries)

Row | SMILES | Potency | activity change, negative = cytotoxicity
23 | O=C(OCN1C(=O)c2ccccc2C1=O)c1cccc(S(=O)(=O)N2CCOCC2)c1 |  | inactive: -1.89%
24 | COc1ccc(C(=O)O/N=C(\N)c2ccccc2)cc1OC | inconclusive: 23.1 µM [falling, partial curve, poor fit] | 
25 | S=C(NCCc1ccccc1)N/N=C/c1c(Cl)cccc1Cl |  | inactive: 14.6%
26 | O=C(Nc1cccc2cccnc12)c1ccccc1[N+](=O)[O-] | inconclusive: 6.51 µM [falling, partial curve, poor fit] | 
27 | COc1ccc(C2/C=C\CN(C(=O)c3ccc(C)cc3)C(Cc3ccccc3)C(=O)N2Cc2ccc(F)cc2)cc1 (stereo unspecified) |  | inactive: -13%
28 | CCCCCCCNC1=CC(=O)CC(c2ccccc2)C1 (stereo unspecified) | inconclusive: 23.1 µM [falling, single point] | 
29 | O=C1C=C(N2CCCCC2)c2ccccc2C1=O | active: 18.4 µM | 
30 | CCN1/C(=C/c2cc[n+](C)cc2)C=Cc2cc(C)ccc21 | inconclusive: 8.2 µM [falling, partial curve] | 
31 | CCN(CC)C(=O)c1sc(NC(=O)c2nc3ncccn3n2)c(C(=O)OC)c1C |  | inactive: 1.37%
32 | O=C(Nc1cccc2c1CCCC2)c1ccccc1F | inconclusive: 18.4 µM [activator, partial curve, poor fit] | 
33 | O=C(Nc1ccc(Cl)c(Cl)c1)C1C2C=CC3(O2)C1C(=O)N(CCN1CCCCC1)C3C(=O)NC1CCCCC1 (stereo unspecified) | inconclusive: 20.6 µM [falling, single point] | 
34 | CC(C)=CCN1CCN(Cc2cnc(N3CCCC3)s2)CC1CCO (stereo unspecified) | inconclusive: 14.6 µM [falling, partial curve, poor fit] | 
35 | COc1cc(-c2nc3ccccn3c2NCc2ccccc2)ccc1SC1CCCCC1 | inconclusive: 29.1 µM [falling, partial curve, poor fit] | 
36 | Cc1cc(C)cc(C(=O)OCC(=O)Nc2cccc(S(=O)(=O)NC3=NCCCCC3)c2)c1 | inconclusive: 23.1 µM [falling, partial curve, poor fit] | 
37 | Cn1ccc(=S)c2ccccc21 | inconclusive: 9.2 µM [falling, partial curve, poor fit] | 
38 | COC(=O)CC/C(C)=N\Nc1ccc([N+](=O)[O-])cc1[N+](=O)[O-] | inconclusive: 11.6 µM [falling, partial curve, poor fit] | 
39 | CCCCc1cc(=O)oc2cc(C)c3c(C(C)(C)C)coc3c12 | inconclusive: 10.3 µM [activator, partial curve, poor fit] | 
40 | COc1ccc(C(=O)NCCc2ccccc2)cc1OC |  | inactive: 0.491%
41 | O=C(NC(=S)Nc1cccc(O)c1)c1ccco1 |  | inactive: 1.73%
42 | c1ccc(C2[C@H]3CN(Cc4cccnc4)[C@H](c4ccccc4)C34CC2(c2cccnc2)C4)cc1 (stereo partly specified) |  | inactive: -19%
43 | O=C(O)/C=C\C(=O)Nc1ccccc1C#Cc1ccc(Br)cc1 | inconclusive: 20.6 µM [falling, partial curve, poor fit] | 
44 | CC(=O)Nc1ccc(NC(=O)C2CCN(C(=O)c3ccc([N+](=O)[O-])cc3)CC2)cc1 |  | inactive: 0.174%

Row | SMILES | Potency | activity change, negative = cytotoxicity
45 | CN(C)c1ccc(/C=N/NC(N)=S)cc1[N+](=O)[O-] | inconclusive: 8.2 µM [falling, partial curve, poor fit] | 
46 | CCCCC1CCC(C(=O)N2CC(=O)Nc3ccc(C)cc3C2c2ccc(F)cc2)CC1 (stereo unspecified) | inconclusive: 20.6 µM [falling, single point] | 
47 | COc1ccc(NC(=O)c2c(NC(=O)C(F)(F)F)sc3c2CCCCC3)cc1 | inconclusive: 5.17 µM [falling, partial curve] | 
48 | O=c1[nH][nH]c(C(F)(F)F)c1C=Nc1ccc(Cl)cc1 | inconclusive: 13 µM [falling, single point] | 
49 | COc1cccc(-c2nc(CS(=O)(=O)CC(=O)N3CCN(c4ccccn4)CC3)c(C)o2)c1 | inconclusive: 0.116 µM [activator, full curve, poor fit] | 
50 | NC(=O)c1nsc(C(=O)N(c2ccccc2F)C(C(=O)NCc2ccc(F)cc2)c2ccc(O)cc2)c1N (stereo unspecified) | inconclusive: 25.9 µM [falling, partial curve, poor fit] | 
51 | COc1ccc(C2=NN(C(=O)CSc3nc4ccccc4s3)C(c3ccc(F)cc3)C2)cc1 (stereo unspecified) |  | inactive: -0.449%
52 | Cc1cccc(NC(=S)N2CCN(S(=O)(=O)c3cccc(F)c3)CC2)c1 | inconclusive: 4.61 µM [activator, partial curve, poor fit] | 
53 | Cc1c(C(=O)N2CCC(C)CC2)c(S(=O)(=O)N(Cc2ccccc2)C(C)(C)C)c(C)n1C | inconclusive: 7.31 µM [falling, partial curve] | 
54 | CCC(=O)NCCc1nc2cc(NC(=O)c3cccc(Br)c3)ccc2n1C |  | inactive: -1.51%
55 | C=C(C)n1c(=O)n(Cc2ccc(C)cc2)c2ccccc21 |  | inactive: -21.9%
56 | CCOCCCn1c(=N)c(C(=O)NCc2cccnc2)cc2c(=O)n3ccccc3nc21 | inconclusive: 14.6 µM [activator, partial curve] | 
57 | CCN1CCN(c2nc3ccccc3nc2C(C#N)S(=O)(=O)c2ccc(C)cc2)CC1 (stereo unspecified) | inconclusive: 32.6 µM [falling, partial curve, poor fit] | 
58 | CC(C)(CO)Nc1ccc([N+](=O)[O-])cc1[N+](=O)[O-] | inconclusive: 18.4 µM [falling, partial curve, poor fit] | 
59 | O=C(NCc1ccccc1Cl)c1ccc(CS(=O)(=O)c2ccc(Br)cc2)o1 | inconclusive: 29.1 µM [falling, single point] | 
60 | CC(C)(C)c1ccc(C2CC2C(=O)N/N=C\c2ccc[nH]2)cc1 (stereo unspecified) | active: 5.8 µM | 
61 | S=C(NCCc1ccccc1)Nc1ccccn1 | inconclusive: 3.66 µM [activator, partial curve, poor fit] | 
62 | CC1=CC2C(C(O)CC3(C)C2CC(C)C32OCOC23COCO3)C2(C)C/C(=C\O)C(=O)C=C12 (stereo unspecified) | inconclusive: 16.4 µM [falling, single point] | 
63 | CC(NC(=O)Cn1ccc2cc(S(=O)(=O)N3CCCCCC3)ccc21)c1ccccc1 (stereo unspecified) | inconclusive: 20.6 µM [falling, partial curve, poor fit] | 
64 | O=[N+]([O-])c1ccc2nc(-c3ccc(Cl)cc3)n(OCc3ccccc3)c2c1 | inconclusive: 4.11 µM [activator, partial curve, poor fit] | 
65 | Cc1ccc(NC(=O)c2sc3nc(-c4cccs4)ccc3c2N)cc1F |  | inactive: 9.49%
66 | O=C(c1ccc(OCC2CCCO2)cc1)N1CCN(c2ccccc2)CC1 (stereo unspecified) |  | inactive: -2.1%

From PubChem BioAssay AID504648 (National Center for Advancing Translational Sciences (NCATS), 2011)
